# Results from paper PMC4199692.
# Results are given in words; binding and its absence hold for the method and conditions named. Some binding calls cover weakened binding; strength is not graded here.
# T1: Polo (UniProt P52304)
# T1 sequence: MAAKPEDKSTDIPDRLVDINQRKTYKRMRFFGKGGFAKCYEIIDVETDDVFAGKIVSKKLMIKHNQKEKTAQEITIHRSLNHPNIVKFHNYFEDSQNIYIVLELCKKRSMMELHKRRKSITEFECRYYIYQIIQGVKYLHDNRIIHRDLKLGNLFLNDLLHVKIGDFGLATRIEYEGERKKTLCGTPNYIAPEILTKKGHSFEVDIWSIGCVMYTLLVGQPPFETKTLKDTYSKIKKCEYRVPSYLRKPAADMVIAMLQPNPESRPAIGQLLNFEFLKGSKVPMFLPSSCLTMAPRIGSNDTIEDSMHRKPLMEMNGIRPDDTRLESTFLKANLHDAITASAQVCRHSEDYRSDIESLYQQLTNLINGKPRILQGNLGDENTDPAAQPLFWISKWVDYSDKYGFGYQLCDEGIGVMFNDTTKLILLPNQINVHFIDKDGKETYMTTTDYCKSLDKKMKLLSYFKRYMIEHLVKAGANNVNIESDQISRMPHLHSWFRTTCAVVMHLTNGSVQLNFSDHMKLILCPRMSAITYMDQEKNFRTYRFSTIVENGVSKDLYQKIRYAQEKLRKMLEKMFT
# B1: MEI-S332 T331-D (phosphomimetic version of the Polo box-binding domain) (protein, UniProt Q24141 1-401)
# chain: MGSKVEQQYKLLNAELMDQVQKQRLEIGEYRKRVISLEREIMDIREEHVLQNHRQRMENISIVRSLMLSLNVDSDSLAVRQEPAPAAQINRPSGPRRSSREICKDMRRTCALARTTRPISPRRSSSVTSTVSSTSRRSSAEVQSEVVTTRIPEDRRANKPTPPPRRPAELVFDEDDSDDDFDEAVSPVEETQTEQNEENNRLFSIIEENGSEGESTDSSSSCEAIYCDTTFESSPPNAQVTVTPSGRALREVDTNIPVAVSLSRGKETGKGSWLAISVAVEDSPQEPSIQCPRLAVTRPSQSSGIFPDVNGLTPRRSLFNGIGKMAGSTSDPKSFLVEEMPSIRTRSRTAANKKSENTDMSSSFCNNSARPSRSCRPTSLVEPSLKNKLRNGSKGKAKAKK
# Target: T1, Polo
# Assay: in vitro binding study; in vitro binding studies with Polo; methods in File S1 (not shown)
binder,measurement,value
B1,binding,binds
